From US20090022803A1, “Oral Formulations For Delivery of Catecholic Butanes Including Ndga Compounds” (priority 2005, published 2009)
Read-outs that look alike come from different tables or passages of the source. The source gives many values for each of these; only a part stands here.

Assay type: physicochemical
Conditions: for Dissolution After Cool-Down: after heating at 70° C.
Procedure: A 10 mL solution of M4N at a concentration of about 10 mg/mL in 40% BP-β-CD was made as follows. About 10 mL of the 40% HP-β-CD solution were added to a glass beaker containing a stir bar. The beaker was placed on a magnetic plate and the stir bar was set to stir at medium speed. About […] of M4N were slowly added to the 40% HP-β-CD in the center of the beaker with the aid of a spatula. The M4N/40% HP-β-CD mixture was stirred for 2 hr or until all M4N was uniformly suspended without any clumps being present. The M4N/40% HP-β-CD mixture was optionally heated at 80° C. for about 30 min. (or longer if a larger volume of solution was desired, for example, 1 hr at 80° C. for 100 mL of the M4N/HP-β-CD mixture), or longer as needed to ensure complete dissolution of M4N. […] The final M4N/40% HP-β-CD solution was stored at room temperature and was kept protected from light. This process may be scaled up or down to obtain the requisite volume or concentration of M4N. Formulations containing M4N in other cyclodextrin solutions may be similarly made, such as, for example, by substituting HP-β-CD in the process described above with other cyclodextrins. […]
A 10 mL solution of M4N at a concentration of about 10 mg/mL in 50% HP-β-CD/0.5% HPMC was made as follows. About 10 mL of the 50% HP-β-CD/0.5% HPMC solution were added to a glass beaker containing a stir bar. The beaker was placed on a magnetic plate and the stir bar was set to stir at medium speed. About 100 mg of M4N were slowly added to the 50% HP-β-CD/0.5% HPMC in the center of the beaker with the aid of a spatula. The M4N/50% HP-β-CD/0.5% HPMC mixture was stirred for 24 hr or until all M4N was uniformly suspended without any clumps being present. The M4N/50% HP-β-CD/0.5% HPMC mixture was heated at about 90° C. for about 30 min. (or longer if a larger volume of solution was desired, for example, 1 hr at 90° C. for 500 mL of the M4N/50% HP-β-CD/0.5% HPMC mixture), or longer as needed to ensure complete dissolution of M4N. […] The final M4N/50% HP-β-CD/0.5% HPMC solution was stored at room temperature and was kept protected from light.
A 10 mL solution of M4N at a concentration of about 20 mg/mL in 5% EC (w/v) (the “EC formulation”) was made as follows. About 10 mL of 5% EC formulation, made as described above, were added to a glass beaker containing a stir bar. The beaker was placed on a magnetic plate and the stir bar was set to stir at medium speed, and covered with a round Teflon® cover. About 200 mg of M4N were slowly added to the 5% EC formulation in the center of the beaker with the aid of a spatula to prevent M4N from sticking to the beaker wall. The M4N/EC mixture was stirred for 2 hr or until all M4N had dissolved or was uniformly suspended without any clumps being present. The M4N/EC mixture was heated at about 60° C. for about 30 min. (or longer if a larger volume of solution was desired, for example, 1 hr at 60° C. for 500 mL of the M4N/EC mixture), or longer as needed to ensure complete dissolution of M4N. […] The final M4N/EC solution was stored at room temperature and was kept protected from light.
A 10 mL solution of M4N at a concentration of about 50 mg/mL in sesame oil was made as follows. About 10 mL of sesame oil were added to a glass beaker containing a stir bar. The beaker was placed on a magnetic plate and the stir bar was set to stir at medium speed. About 500 mg of M4N were slowly added to the sesame oil in the center of the beaker with the aid of a spatula to prevent M4N from sticking to the beaker wall. The M4N/sesame oil mixture was stirred for about 2 hr or until all M4N had dissolved or was uniformly suspended without any clump being present. The M4N/sesame oil mixture was heated at about 60° C. for about 30 min. (or longer if a larger volume of solution was desired, for example, 1 hr at 60° C. for 500 mL of the M4N/sesame oil mixture), or longer as need to ensure complete dissolution of M4N. […]
Wherever Dissolution After Cool Down is given: key: N represents 'No'; Y represents 'Yes.'.

SMILES: COc1ccc(C[C@@H](C)[C@@H](C)Cc2ccc(OC)c(OC)c2)cc1OC [Formulation M4N, meso-1,4-bis(3,4-dimethoxyphenyl)-2,3-dimethylbutane]
- Dissolution After Rotation (40% Propylene Glycol (w/v), 10% Ethanol (v/v), M4N 10 mg/mL): N
- Dissolution After Rotation (47.5% (v/v) Tween ® 20, 47.5% (v/v) PEG 400, 2.5% (w/v) Beeswax 2.5% (w/v) PEG 3350, M4N 60 mg/mL): N
- Dissolution After Cool Down (47.5% (v/v) Tween ® 20, 47.5% (v/v) PEG 400, 2.5% (w/v) Beeswax 2.5% (w/v) PEG 3350, M4N 60 mg/mL, after heating at 65° C.): Y
- Dissolution After Heating (47.5% (v/v) Tween ® 20, 47.5% (v/v) PEG 400, 2.5% (w/v) Beeswax 2.5% (w/v) PEG 3350, M4N 60 mg/mL, heating at 65° C.): Y at 65 °C
- Dissolution After Rotation (47.5% Tween ® 20 (v/v), 47.5% PEG 400 (v/v), 5% Beeswax (w/v), M4N 200 mg/g): N
- Dissolution After Cool Down (47.5% Tween ® 20 (v/v), 47.5% PEG 400 (v/v), 5% Beeswax (w/v), M4N 200 mg/g, after heating at 65° C.): Waxy solid
- Dissolution After Heating (47.5% Tween ® 20 (v/v), 47.5% PEG 400 (v/v), 5% Beeswax (w/v), M4N 200 mg/g, heating at 65° C.): Y at 65 °C
- Dissolution After Rotation (50% (v/v) Tween ® 20 40% (v/v) PEG 400, 5% (w/v) Lechitin, 2.5% (w/v) PEG 3350, 2.5% (w/v) Beeswax, M4N 60 mg/mL): N
- Dissolution After Cool Down (50% (v/v) Tween ® 20 40% (v/v) PEG 400, 5% (w/v) Lechitin, 2.5% (w/v) PEG 3350, 2.5% (w/v) Beeswax, M4N 60 mg/mL, after heating at 60° C.): Creamy
- Dissolution After Heating (50% (v/v) Tween ® 20 40% (v/v) PEG 400, 5% (w/v) Lechitin, 2.5% (w/v) PEG 3350, 2.5% (w/v) Beeswax, M4N 60 mg/mL, heating at 60° C.): Y at 60 °C
- Dissolution After Rotation (50% Tween ® 20 (v/v), 50% PEG 400 (v/v), M4N 30 mg/ml): N
- Dissolution After Cool Down (50% Tween ® 20 (v/v), 50% PEG 400 (v/v), M4N 30 mg/ml, after heating at 65° C.): Y
- Dissolution After Heating (50% Tween ® 20 (v/v), 50% PEG 400 (v/v), M4N 30 mg/ml, heating at 65° C.): Y at 65 °C
- Dissolution After Rotation (50% Tween ® 20 (v/v), 50% PEG 400 (v/v), M4N 40 mg/ml): N
- Dissolution After Cool Down (50% Tween ® 20 (v/v), 50% PEG 400 (v/v), M4N 40 mg/ml, after heating at 65° C.): Y
- Dissolution After Heating (50% Tween ® 20 (v/v), 50% PEG 400 (v/v), M4N 40 mg/ml, heating at 65° C.): Y at 65 °C
- Dissolution After Rotation (50% Tween ® 20 (v/v), 50% PEG 400 (v/v), M4N 50 mg/ml): N
- Dissolution After Cool Down (50% Tween ® 20 (v/v), 50% PEG 400 (v/v), M4N 50 mg/ml, after heating at 65° C.): Y
- Dissolution After Heating (50% Tween ® 20 (v/v), 50% PEG 400 (v/v), M4N 50 mg/ml, heating at 65° C.): Y at 65 °C
- Dissolution After Rotation (50% Tween ® 20 (v/v), 50% PEG 400 (v/v), M4N 60 mg/ml): N
- Dissolution After Cool Down (50% Tween ® 20 (v/v), 50% PEG 400 (v/v), M4N 60 mg/ml, after heating at 65° C.): Y
- Dissolution After Heating (50% Tween ® 20 (v/v), 50% PEG 400 (v/v), M4N 60 mg/ml, heating at 65° C.): Y at 65 °C
- Dissolution After Rotation (50.3% (v/v) Tween ® 20, 44.6% (v/v) PEG 400, 2.4% (w/v) Beeswax, 2.4% (w/v) PEG 3350, 0.3% (w/v) Naringenin, M4N 60 mg/mL): N
- Dissolution After Cool Down (50.3% (v/v) Tween ® 20, 44.6% (v/v) PEG 400, 2.4% (w/v) Beeswax, 2.4% (w/v) PEG 3350, 0.3% (w/v) Naringenin, M4N 60 mg/mL, after heating at 65° C.): Y
- Dissolution After Heating (50.3% (v/v) Tween ® 20, 44.6% (v/v) PEG 400, 2.4% (w/v) Beeswax, 2.4% (w/v) PEG 3350, 0.3% (w/v) Naringenin, M4N 60 mg/mL, heating at 65° C.): Y at 65 °C
- Dissolution After Heating (Ethanol 100%, M4N 10 mg/mL, heating at 37° C.): N at
- Dissolution After Rotation (Gelucire ® 44/14 100%, M4N 60 mg/mL): N
- Dissolution After Cool Down (Gelucire ® 44/14 100%, M4N 60 mg/mL, after heating at 60° C.): Creamy
- Dissolution After Heating (Gelucire ® 44/14 100%, M4N 60 mg/mL, heating at 60° C.): Y at 60 °C
- Dissolution After Rotation (Gelucire ® 44/14 100%, M4N 200 mg/mL): N
- Dissolution After Cool Down (Gelucire ® 44/14 100%, M4N 200 mg/mL, after heating at 60° C.): Creamy
- Dissolution After Heating (Gelucire ® 44/14 100%, M4N 200 mg/mL, heating at 60° C.): Y at 60 °C
- Dissolution After Rotation (Gelucire ® 44/14 100%, M4N 300 mg/mL): N
- Dissolution After Cool Down (Gelucire ® 44/14 100%, M4N 300 mg/mL, after heating at 60° C.): Creamy
- Dissolution After Heating (Gelucire ® 44/14 100%, M4N 300 mg/mL, heating at 60° C.): Y at 60 °C
- Dissolution After Cool-Down (Glycerol 100%, M4N 1 mg/mL): N
- Dissolution After Heating (Glycerol 100%, M4N 1 mg/mL, heating at 70° C.): Y at
- Dissolution After Cool-Down (Glycerol 100%, M4N 10 mg/mL): N
- Dissolution After Heating (Glycerol 100%, M4N 10 mg/mL, heating at 70° C.): Y at
- Dissolution After Cool-Down (Glycerol 100%, M4N 20 mg/mL): N
- Dissolution After Heating (Glycerol 100%, M4N 20 mg/mL, heating at 70° C.): Y at
- Dissolution After Rotation (Glycerol Monoleate 100% (w/v), M4N 0.10 mg/ml): N
- Dissolution After Cool Down (Glycerol Monoleate 100% (w/v), M4N 0.10 mg/ml, after heating at 60° C.): Suspension
- Dissolution After Heating (Glycerol Monoleate 100% (w/v), M4N 0.10 mg/ml, heating at 60° C.): Y at 60 °C
- Dissolution After Rotation (Glycerol Monoleate 100% (w/v), M4N 0.25 mg/ml): N
- Dissolution After Cool Down (Glycerol Monoleate 100% (w/v), M4N 0.25 mg/ml, after heating at 60° C.): Suspension
